pKd: −log10 of the molar value. The match of structure and compound is tentative. Some results are limits rather than exact numbers.

Sequences of proteins named here, by UniProt entry; tags and fusion partners are left off. Residues count along the entry.
UniProt P98170, 241-356 limits assumed: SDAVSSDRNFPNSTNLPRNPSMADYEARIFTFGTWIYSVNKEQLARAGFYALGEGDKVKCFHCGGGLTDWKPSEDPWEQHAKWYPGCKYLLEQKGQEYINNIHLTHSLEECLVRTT
UniProt Q13490, 266-343 limits assumed: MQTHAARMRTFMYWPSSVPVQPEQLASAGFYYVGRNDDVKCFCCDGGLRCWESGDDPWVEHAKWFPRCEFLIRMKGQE

In one test the target is XIAP BIR-3 (Homo sapiens, UniProt P98170). The test can be described thus: Fluorescence polarization binding to XIAP BIR-3 (competition with AbuRPF-K(5-Fam)-NH2). Particulars: XIAP BIR-3 (default where cell does not indicate otherwise); reported as range class. As to the method:
(§1) The binding affinities of the compounds are reported as a Kd value. Briefly, various concentrations of test peptides were mixed with 5 nM of the fluorescently labeled peptide (i.e., a mutated N-terminal Smac peptide—AbuRPF-K(5-Fam)-NH2) and 40 nM of the BIR3 for 15 min at RT in […] of 0.1M Potassium Phosphate buffer, pH 7.5 containing […] bovine g-globulin. Following incubation, the polarization values (mP) were measured on a Victor2V (available from PerkinElmer Life Sciences) using a 485 nm excitation filter and a 520 nm emission filter. The reported Kd values are supplied as ranges (A=<0.1 μM, B=0.1 μM to C=>1 μM to 10 μM, D=>10 μM) and, unless otherwise indicated, are the Kd for XIAP BIR-3.
On the technique in general: Fluorescence polarisation rises when a labelled molecule tumbles more slowly, as on binding a larger partner.
For the molecule `CC[C@H](NC)C(=O)N[C@H](C(=O)N1CCC[C@H]1Cc1c[nH]c2ncccc12)[C@@H](C)OC`, the pKd – broadly, the negative decadic logarithm of the Kd, by convention in mol/L – is greater than 7.00.

The molecule `CC[C@H](NC)C(=O)N[C@H](C(=O)N1CC[C@H](OC)[C@H]1Cc1c[nH]c2cc(F)ccc12)C(C)(C)C` gave a pKd of less than 5.00.

Take `CN[C@@H](C)C(=O)N[C@H](C(=O)N1C[C@@H](O)C[C@H]1Cc1c[nH]c2ncccc12)C(C)(C)C`: the pKd is greater than 7.00.

`CC[C@H](NC)C(=O)N[C@H](C(=O)N1CC[C@H](O)[C@H]1Cc1c[nH]c2cc(F)ccc12)C1CCCCC1` showed a negative logarithm of the Kd (pKd) greater than 7.00.

Molecule `CC[C@H](NC)C(=O)N[C@H](C(=O)N1CC[C@H](OC)[C@H]1Cc1cn(C)c2cc(F)ccc12)[C@@H](C)OC` had a negative logarithm of the Kd (pKd) of less than 5.00.

In the case of `CC[C@H](NC)C(=O)N[C@H](C(=O)N1CC[C@H](C)[C@H]1Cc1c[nH]c2cc(F)ccc12)[C@@H](C)O`, the pKd is less than 7.00.

`CCN[C@@H](C)C(=O)N[C@H](C(=O)N1CC[C@H](OC)[C@H]1Cc1c[nH]c2cc(F)ccc12)C(C)(C)C`: the pKd was less than 5.00.

The next test deals with cIAP-1 BIR-3 (Homo sapiens, UniProt Q13490). Briefly: Fluorescence polarization binding to cIAP-1 BIR-3 (competition with AbuRPF-K(5-Fam)-NH2). The conditions noted are these: cells marked (cIAP-1): cIAP-1 BIR-3; reported as range class. Here is the method: as §1
With `CN[C@@H](C)C(=O)N[C@H](C(=O)N1C[C@@H](O)C[C@H]1C[C@@H]1CN(C(C)=O)c2ccccc21)[C@@H](C)OC`, the pKd is greater than 7.00.

Molecule `CN[C@@H](C)C(=O)N[C@H](C(=O)N1C[C@@H](O)C[C@H]1C(=O)c1c[nH]c2cc(F)ccc12)C1CCCCC1` had a pKd greater than 7.00.

`CN[C@@H](C)C(=O)N[C@H](C(=O)N1C[C@H](O)C[C@H]1C(=O)c1c[nH]c2cc(F)ccc12)C1CCCCC1` had a pKd of 5.00 to 6.00.

`CN[C@@H](C)C(=O)N[C@H](C(=O)N1CC[C@H](OC)[C@H]1Cc1c(Cl)[nH]c2cc(F)ccc12)C(C)C`: the pKd was less than 7.00.

For the molecule `CN[C@@H](C)C(=O)N[C@H](C(=O)N1CC[C@@H](O)[C@H]1Cc1c(-c2ccc(F)cc2)[nH]c2ccccc12)[C@@H](C)OC`, the pKd is greater than 7.00.

`CCN[C@@H](C)C(=O)N[C@H](C(=O)N1C[C@@H](O)C[C@H]1C[C@@H]1CN(C(C)=O)c2ccc(CC)cc21)C1CCCCC1` gave a negative logarithm of the Kd (pKd) of less than 7.00.

As to `CN[C@@H](C)C(=O)N[C@H](C(=O)N1C[C@H](O)C[C@H]1C(=O)c1c[nH]c2cc(F)ccc12)C(C)(C)C`, the pKd is 5.00 to 6.00.

As for `CC[C@H](NC)C(=O)N[C@H](C(=O)N1CC[C@H](O)[C@H]1Cc1c(Cl)[nH]c2cc(F)ccc12)C(C)(C)C`, the negative-log Kd (pKd) is greater than 7.00.

`CCN[C@@H](C)C(=O)N[C@H](C(=O)N1CC[C@@H](O)[C@H]1Cc1c[nH]c2ccccc12)C(C)C` had a pKd greater than 7.00.

(Values after patent US20110288116A1, “IAP INHIBITORS” (TETRALOGIC PHARMACEUITCAL CORPORATION, priority 2008, published 2011).)
